This note sets out measurements from paper PMC5095591.

The target in one assay is T1, TEX12 (mouse) (UniProt Q9CR81).
T1 sequence: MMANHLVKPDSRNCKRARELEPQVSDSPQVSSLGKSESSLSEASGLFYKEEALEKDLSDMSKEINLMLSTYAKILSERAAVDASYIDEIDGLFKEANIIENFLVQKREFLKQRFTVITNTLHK
The experiment in a line: co-IP; HEK 293T cells transiently co-transfected; whole cell extracts cleared with protein G Sepharose; immunoprecipitation with anti-Flag, anti-EGFP or anti-Myc antibody; western blotting. For orientation: In western blotting, separated proteins are transferred to a membrane and probed.

Another assay concerns the target T2, Myc-SYCE1 (mouse) (UniProt Q9D495).
T2 sequence: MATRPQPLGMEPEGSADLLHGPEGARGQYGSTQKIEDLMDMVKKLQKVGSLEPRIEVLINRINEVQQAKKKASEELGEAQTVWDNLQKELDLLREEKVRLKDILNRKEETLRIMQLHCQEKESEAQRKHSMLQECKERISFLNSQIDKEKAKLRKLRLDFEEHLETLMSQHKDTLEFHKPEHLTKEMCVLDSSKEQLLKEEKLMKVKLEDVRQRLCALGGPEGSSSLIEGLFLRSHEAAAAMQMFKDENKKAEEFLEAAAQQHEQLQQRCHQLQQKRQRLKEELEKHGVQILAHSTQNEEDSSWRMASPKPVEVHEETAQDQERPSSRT
The description is as above.

No constants are given. Whether binding was seen depends on the method and setting. Binding seen in cells or lysates may run through a third protein. Some results given as binding are weak or reduced against the parent protein; the word gives no strength. For some assays here: Tags and fused reporters may be left off the sequences shown.

B1: SYCE2 (protein, UniProt Q505B8 1-171)
chain: MERHGVAAPPVELKDQEPPAIVESGEHRQSENHEETPGSVAPSASCQLPGPFSSLDSSIETLKKKAQELIENINESRQKDHALMTNFRDSLKMKVSDLTEKLEERMYQVYSHHSKIIQERLQEFTQKMAKINHLEMELKQVCQTVETVYKDLCVQSEVPTCEEQNYKDGEC
With B1, the binding entry with TEX12 (mouse) is given as “binds”.

B2: SYCE3 (protein, UniProt B5KM66 1-88)
chain: MADSDPGERSYDNMLKMLSDLNKDLEKLLEEMEKISVQATWMAYDMVVMRTNPTLAESMRRLEDAFLNCKEEMEKNWQELLTETKRKQ
In the case of B2, the binding result in the assay with Myc-SYCE1 (mouse) is “binds”.
